According to publication PMC10902300:
Read-outs that look alike come from different tables or passages of the source. These are yes or no findings as the source states them, for the method shown. In cells and extracts the contact can be indirect. Some binding calls cover weakened binding; strength is not graded here. For some assays here: Where a sequence is shown, tags or fusion partners need not be part of it.

Protein sequences, listed by entry. Tags and fused reporters are not part of them.
UniProt P17542: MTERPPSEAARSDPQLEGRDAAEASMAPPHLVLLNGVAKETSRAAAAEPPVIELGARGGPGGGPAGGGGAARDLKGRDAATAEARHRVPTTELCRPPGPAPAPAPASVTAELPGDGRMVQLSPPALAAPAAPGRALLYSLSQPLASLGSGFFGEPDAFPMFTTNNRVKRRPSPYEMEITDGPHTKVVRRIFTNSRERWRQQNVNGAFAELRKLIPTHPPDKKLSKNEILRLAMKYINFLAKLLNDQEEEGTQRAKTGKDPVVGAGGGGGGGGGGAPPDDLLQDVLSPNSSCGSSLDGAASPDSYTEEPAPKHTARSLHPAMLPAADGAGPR
UniProt Q92769: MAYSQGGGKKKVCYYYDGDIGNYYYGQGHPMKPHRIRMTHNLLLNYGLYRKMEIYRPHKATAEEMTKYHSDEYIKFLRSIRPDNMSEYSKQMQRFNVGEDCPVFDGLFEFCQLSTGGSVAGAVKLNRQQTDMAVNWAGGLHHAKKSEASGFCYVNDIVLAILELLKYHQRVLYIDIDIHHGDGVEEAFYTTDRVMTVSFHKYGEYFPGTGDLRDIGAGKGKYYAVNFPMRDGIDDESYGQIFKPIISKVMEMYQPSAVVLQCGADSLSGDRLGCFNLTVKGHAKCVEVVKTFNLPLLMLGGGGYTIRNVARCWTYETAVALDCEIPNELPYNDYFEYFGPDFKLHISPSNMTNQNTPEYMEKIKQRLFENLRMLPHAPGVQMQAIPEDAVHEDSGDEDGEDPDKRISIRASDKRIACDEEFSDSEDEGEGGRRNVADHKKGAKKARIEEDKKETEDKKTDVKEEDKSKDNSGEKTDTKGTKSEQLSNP
UniProt Q13547: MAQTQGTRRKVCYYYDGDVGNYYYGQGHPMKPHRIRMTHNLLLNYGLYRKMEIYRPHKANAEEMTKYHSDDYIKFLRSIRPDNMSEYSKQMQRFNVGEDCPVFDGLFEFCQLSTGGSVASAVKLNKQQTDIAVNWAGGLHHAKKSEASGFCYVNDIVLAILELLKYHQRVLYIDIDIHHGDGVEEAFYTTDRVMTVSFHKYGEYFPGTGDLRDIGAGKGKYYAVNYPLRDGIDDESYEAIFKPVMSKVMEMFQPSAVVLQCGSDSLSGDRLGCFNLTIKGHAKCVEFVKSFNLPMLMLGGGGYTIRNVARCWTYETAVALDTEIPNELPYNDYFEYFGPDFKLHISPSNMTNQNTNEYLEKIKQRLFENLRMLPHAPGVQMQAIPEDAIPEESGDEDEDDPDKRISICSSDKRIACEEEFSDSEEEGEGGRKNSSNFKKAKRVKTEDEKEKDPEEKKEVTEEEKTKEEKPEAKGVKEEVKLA

Experiments:
[1] = target: Tcf3 in Jurkat cells (human (endogenous in Jurkat)) (UniProt P15923); assay: co-IP; Pierce co-IP kit; lysates of Jurkat cells, GFP-Id2^WT and GFP-Id2^ΔHLH Jurkat cells, with or without anti-CD3 antibody; IP lysis buffer (0.025 M Tris, 0.15 M NaCl, 0.001 M EDTA, 1% NP-40, 5% glycerol); antibody-conjugated resin (anti-GFP, anti-Flag or anti-Tcf3) overnight at 4 °C; immunoblot
[2] = target: Tal1 in Jurkat cells (human (endogenous in Jurkat)) (UniProt P17542); assay: as above
[3] = target: Tcf3 in Jurkat cells (human (endogenous in Jurkat)) (UniProt P15923); assay: as above; remark: listed apart in the source
[4] = target: T1, Flag-Tcf3, Flag-full length (1-651aa) (UniProt P15923); assay: co-IP; HEK-293 cells transfected with the plasmids (fixed Flag-Tcf3 and Tal1, increasing Id2; also PMA plus ionomycin-stimulated HEK-293 cells); Pierce co-IP kit, antibody-conjugated resin overnight at 4 °C; immunoblot
T1 sequence: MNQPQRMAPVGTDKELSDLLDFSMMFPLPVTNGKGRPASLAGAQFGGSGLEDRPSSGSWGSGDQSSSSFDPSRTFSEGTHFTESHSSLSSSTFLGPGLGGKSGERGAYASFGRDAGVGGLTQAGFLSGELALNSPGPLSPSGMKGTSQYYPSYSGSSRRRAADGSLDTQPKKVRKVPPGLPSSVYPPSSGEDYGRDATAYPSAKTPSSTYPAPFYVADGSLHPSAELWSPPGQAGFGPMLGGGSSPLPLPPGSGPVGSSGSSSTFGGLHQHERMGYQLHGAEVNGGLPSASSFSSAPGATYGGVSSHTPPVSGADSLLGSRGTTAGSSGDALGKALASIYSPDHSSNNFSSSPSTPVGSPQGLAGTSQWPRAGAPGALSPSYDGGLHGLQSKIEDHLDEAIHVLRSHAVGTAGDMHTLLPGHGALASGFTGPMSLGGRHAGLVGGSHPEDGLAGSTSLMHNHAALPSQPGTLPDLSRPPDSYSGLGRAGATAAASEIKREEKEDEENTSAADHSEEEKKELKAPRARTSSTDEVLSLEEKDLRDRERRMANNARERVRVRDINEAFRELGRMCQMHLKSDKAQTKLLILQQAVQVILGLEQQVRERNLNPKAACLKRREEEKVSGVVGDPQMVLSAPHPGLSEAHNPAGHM

For “HDAC2 in Jurkat cells (from UniProt Q92769 1-488) (enzyme)”, the binding [1] was “binds”.

For “HDAC1 in Jurkat cells (from UniProt Q13547 1-482) (enzyme)”, the binding [1] was “binds”.

B1: GFP-Id2^WT (inhibitor of DNA binding protein 2) (protein, UniProt Q02363 1-134)
chain: MKAFSPVRSVRKNSLSDHSLGISRSKTPVDDPMSLLYNMNDCYSKLKELVPSIPQNKKVSKMEILQHVIDYILDLQIALDSHPTIVSLHHQRPGQNQASRTPLTTLNTDISILSLQASEFPSELMSNDSKALCG
With B1 the binding [2] was “binds” and the binding [3] was “binds”.

B2: Id2 expressed in HEK-293 cells (protein, UniProt Q02363 1-134)
chain: B1 chain
B2 was tested, and the binding [4] was “binds”.
